From ChEMBL document CHEMBL3797138, “Discovery of a Selective and Potent Inhibitor of Mitogen-Activated Protein Kinase-Interacting Kinases 1 and 2 (MNK1/2) Utilizing Structure-Based Drug Design” (J Med Chem, 2016)
In brackets after ≈: the same amount, converted by molar mass.

Legend:
[1] = Lipophilicity, log D of the compound at pH 7.4; conditions: buffer
[2] = Solubility of the compound at pH 7.4 by high throughput assay; conditions: buffer

## C[C@H]1CN(c2cccc3nc(-c4nc(-c5cccc(C(=O)N(C)C)c5)cnc4N)n(C)c23)CCN1
[1]
  logD: 1.7
[2]
  solubility: 201 µM (≈ 94.6 µg/mL)
